Source: PubChem BioAssay AID1347076 (National Center for Advancing Translational Sciences (NCATS), 2019)
Among all 400,000 compounds or so, about 13,000 (3.2%) were called active. This list was built around the results that the source calls inconclusive (neither active nor inactive); the mix of calls is not that of the screen. The call rests on the fitted dose curve; in most records, active means well fitted cell-killing curve with a large enough effect; inconclusive means small, poorly fitted or top-dose-only effect, or effect the other way; inactive means flat fitted curve, though single readings scatter. Potencies beside an inconclusive call are fits to weak or partial responses and may not hold up.

Assay: qHTS assay for MDR1-selective chemotherapeutics: Primary screen using the drug-selected MDR subline cells KB-V1; further: nearly all actives have a fitted effect of over 60% in size
Conditions: KB-V1 MDR cells viability, CellTiter-Glo, 72 h; activity change, negative = cytotoxicity: at 46.1 µM (top of the series)
How it was run: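 Compound-treated KB-V1 multidrug-resistant cells, 72 h, 37 degrees C; viability by CellTiter-Glo. Fitted qHTS curves give the values.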
On the % scale 0 is the no-effect control and ±100 the full control effect; potency means the concentration at half of the fitted maximal effect.

SMILES | Potency | activity change, negative = cytotoxicity
Cc1nnc(NC(=O)C23CC4CC(C)(CC(C)(C4)C2)C3)s1 | inactive | –
CCC1CCc2c(sc(NC(=O)c3cnccn3)c2C(N)=O)C1 (stereo not drawn) | inconclusive: 29.1 µM [rising, single point] | –
CC1Cc2cc(/C(O)=C3/C(=O)C(=O)N(CCCn4ccnc4)C3c3cccc([N+](=O)[O-])c3)ccc2O1 (stereo not drawn) | inconclusive: 6.51 µM [rising, partial curve, poor fit] | –
CCc1cc(-c2cnnn2Cc2ccc3ccccc3c2)ccc1-c1cn(CC(C)C)nn1 | inconclusive: 5.17 µM [cytotoxic, full curve] | –
CC1Nc2ncnc(N3CCN(c4ccccc4)CC3)c2N(Cc2ccc(Br)cc2)C1=O (stereo not drawn) | – | inconclusive: -35.7%
O=C(N/N=C/c1ccc(Cl)cc1)c1n[nH]c2c1CCCC2 | active: 1.3 µM | –
COc1ccc2nc(NC(=O)Nc3cccc4ccccc34)sc2c1 | inactive | –
CCOC(=O)C1CCN(C(=O)c2oc3ccc(S(=O)(=O)N4CC(C)CC(C)C4)cc3c2C)CC1 (stereo not drawn) | inconclusive: 16.4 µM [cytotoxic, partial curve] | –
CC1CCCN(C(=O)c2ccc3c(=O)n(Cc4ccc5c(c4)OCO5)c(=S)[nH]c3c2)C1 (stereo not drawn) | inconclusive: 16.4 µM [cytotoxic, single point] | –
COc1ccc(F)cc1C(=O)C1CCCN(Cc2cnc(N3CCCC3)s2)C1 (stereo not drawn) | inactive | –
COc1ccc(-c2noc(CN(C(=O)C(C)(C)C)C(C)C)n2)cc1 | active: 20.6 µM | –
CCc1cccc(NC(=O)CN(C)S(=O)(=O)c2cnc[nH]2)c1 | inconclusive: 13 µM [rising, partial curve] | –
COc1ccc(NC(=O)CCC(=O)N2CCC(c3ccccc3)=N2)cc1S(=O)(=O)N1CCCCC1 | inconclusive: 29.1 µM [rising, single point] | –
CC1CCCCC1NC(=O)CN(C)S(=O)(=O)c1ccc2c(c1)c(=O)n(C)c(=O)n2C (stereo not drawn) | inconclusive: 29.1 µM [rising, partial curve, poor fit] | –
CC(C)c1ccc(NC(=O)C2(C)Cc3ccccc3C(=O)O2)cc1 (stereo not drawn) | inconclusive: 0.206 µM [rising, full curve] | –
Cc1cc(C)nc(NS(=O)(=O)c2ccc(NC(=O)COc3ccccc3)cc2)n1 | inconclusive: 23.1 µM [cytotoxic, single point] | –
Cc1cccc(C)c1OC(=O)c1ccccc1 | inconclusive: 5.17 µM [rising, full curve, poor fit] | –
O=C(Nc1ccc(Cl)cc1)N(Cc1nc2ccccc2c(=O)[nH]1)Cc1cccs1 | inconclusive: 29.1 µM [cytotoxic, single point] | –

Reprinted at random: two records from the list, in no set order.
SMILES | Potency | activity change, negative = cytotoxicity
COc1ccc(NC(=O)CCC(=O)N2CCC(c3ccccc3)=N2)cc1S(=O)(=O)N1CCCCC1 | inconclusive: 29.1 µM [rising, single point] | –
O=C(Nc1ccc(Cl)cc1)N(Cc1nc2ccccc2c(=O)[nH]1)Cc1cccs1 | inconclusive: 29.1 µM [cytotoxic, single point] | –
